Source: US20110207197

Amino acid sequences for entries named in this document (tags omitted). A change or cut given only in a name is not applied to a line headed by its entry.
UniProt Q9UPY3: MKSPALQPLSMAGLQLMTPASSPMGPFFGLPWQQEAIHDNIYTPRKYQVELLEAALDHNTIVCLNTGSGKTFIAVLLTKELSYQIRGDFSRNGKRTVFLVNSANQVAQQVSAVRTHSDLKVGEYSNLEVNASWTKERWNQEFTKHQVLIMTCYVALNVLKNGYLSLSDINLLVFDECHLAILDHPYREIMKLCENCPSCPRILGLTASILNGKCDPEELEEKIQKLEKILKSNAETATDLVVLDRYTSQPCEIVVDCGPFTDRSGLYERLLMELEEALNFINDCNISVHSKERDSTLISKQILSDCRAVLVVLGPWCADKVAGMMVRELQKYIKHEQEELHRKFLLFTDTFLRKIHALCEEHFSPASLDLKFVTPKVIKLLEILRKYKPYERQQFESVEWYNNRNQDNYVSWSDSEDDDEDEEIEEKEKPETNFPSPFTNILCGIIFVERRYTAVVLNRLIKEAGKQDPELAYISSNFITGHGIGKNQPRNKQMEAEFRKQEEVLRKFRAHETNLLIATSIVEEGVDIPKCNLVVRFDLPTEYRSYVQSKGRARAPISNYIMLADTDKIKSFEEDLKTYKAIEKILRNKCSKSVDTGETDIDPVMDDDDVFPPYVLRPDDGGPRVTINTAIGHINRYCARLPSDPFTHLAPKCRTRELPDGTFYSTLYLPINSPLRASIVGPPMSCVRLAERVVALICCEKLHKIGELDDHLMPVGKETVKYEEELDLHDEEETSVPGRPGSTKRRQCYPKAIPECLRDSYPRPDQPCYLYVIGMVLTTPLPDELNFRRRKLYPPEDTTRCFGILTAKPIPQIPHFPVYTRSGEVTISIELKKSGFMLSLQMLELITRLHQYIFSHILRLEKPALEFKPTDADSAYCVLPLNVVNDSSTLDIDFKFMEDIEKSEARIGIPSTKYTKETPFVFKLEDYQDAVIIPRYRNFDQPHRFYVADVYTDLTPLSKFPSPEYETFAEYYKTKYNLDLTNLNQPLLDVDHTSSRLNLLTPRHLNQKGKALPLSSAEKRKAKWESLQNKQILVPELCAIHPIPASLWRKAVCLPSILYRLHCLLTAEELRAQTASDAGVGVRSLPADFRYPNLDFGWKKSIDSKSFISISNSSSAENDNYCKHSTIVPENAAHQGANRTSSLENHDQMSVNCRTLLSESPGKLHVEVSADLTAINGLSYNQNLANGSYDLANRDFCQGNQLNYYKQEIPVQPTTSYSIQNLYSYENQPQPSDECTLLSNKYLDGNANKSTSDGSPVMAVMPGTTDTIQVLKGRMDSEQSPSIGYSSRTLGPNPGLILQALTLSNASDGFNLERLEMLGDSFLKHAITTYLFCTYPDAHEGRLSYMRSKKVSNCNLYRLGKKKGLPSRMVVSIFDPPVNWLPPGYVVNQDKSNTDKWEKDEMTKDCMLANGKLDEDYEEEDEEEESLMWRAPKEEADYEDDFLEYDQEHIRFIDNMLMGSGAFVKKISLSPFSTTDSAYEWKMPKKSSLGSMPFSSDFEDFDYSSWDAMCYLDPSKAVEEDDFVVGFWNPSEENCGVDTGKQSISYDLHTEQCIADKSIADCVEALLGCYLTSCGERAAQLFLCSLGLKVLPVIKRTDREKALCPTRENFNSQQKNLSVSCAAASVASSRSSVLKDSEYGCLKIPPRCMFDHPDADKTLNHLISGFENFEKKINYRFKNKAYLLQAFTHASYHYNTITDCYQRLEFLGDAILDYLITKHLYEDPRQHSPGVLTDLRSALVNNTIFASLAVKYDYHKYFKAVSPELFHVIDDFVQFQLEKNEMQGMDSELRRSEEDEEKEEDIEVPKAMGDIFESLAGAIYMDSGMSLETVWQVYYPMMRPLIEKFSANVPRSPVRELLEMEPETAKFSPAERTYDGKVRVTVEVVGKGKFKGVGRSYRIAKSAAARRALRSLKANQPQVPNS

Biological target: Dicer (ribonuclease Dicer) (Homo sapiens) (UniProt Q9UPY3)
Assay: enzyme reaction in vitro
Settings: pre-miRNA substrate cut by Dicer; 5 mM MgCl2, 37 C; purified recombinant protein; label: 5'-32P

Q: For “GCCCCUGCCCACCGCACACUGCGCUGCCCCAGACCCACUGUGCGUGUGACAGCGGCUG [pre-hsa-miR-210]”, which functional effect is on record?
A: Its functional effect is “active”.

Q: Which functional effect does the source give for “GUGCAUUGUAGUUGCAUUGCAUGUUCUGGUGGUACCCAUGCAAUGUUUCCACAGUGCAUCA [pre-hsa-miR-33a]” here?
A: Its functional effect is “active”.
